## Primary screen of a compound library

From ChEMBL document CHEMBL3988442, “University of Dundee, Small-Polar-MMV Screening Library” (2021).

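Viability assay of Plasmodium falciparum sporozoites; the read-out is not stated. The concentration is filed as 10 mM, unlikely as a test dose, so the dose is not known. The record gives no direction; compounds that gave an IC50 in retests scored well above the rest, so higher reads as lower viability. Strong results were mostly tested again. About 34,000 compounds were tested under these conditions; 0.84% (about 280) showed 50% or more at least once.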

Each number is a percent effect as filed.
How 0% and 100% were set is not recorded. Most values in the screen are low, and negative values occur.
This is an unselected part of the compounds tested.

compound: O=C(O)C(F)(F)F.[H][C@@]12CCN(Cc3c(C)noc3C)C[C@]1(C(=O)N1CCCO1)CCO2
Percent Effect: -7.718%

compound: O=C(c1cc2c(F)cccc2[nH]1)N1CCC(Nc2cccnn2)CC1
Percent Effect: 0.7727%

compound: NC(=O)C1CN(C(=O)Nc2ccccc2-c2cccs2)CCO1 (centres undefined)
Percent Effect: -0.5848%

compound: O=C(O)C(F)(F)F.[H][C@]12CCCC(OCc3cccnc3)[C@@]1([H])CN(C(=O)c1cscn1)C2 (some centres undefined)
Percent Effect: -0.7576%

compound: CCN(CC1CCOC1)C(=O)c1ccccc1NS(=O)(=O)CC (centres undefined)
Percent Effect: -5.134%

compound: O=C(O)C(F)(F)F.O=C(O)C(F)(F)F.[H][C@]12CCN(S(=O)(=O)CC)CC[C@@]1([H])S(=O)(=O)CCN2Cc1cccnc1
Percent Effect: 3.421%

compound: O=C(CN1C=Nc2ccccc2S1(=O)=O)NC1CCCCC1
Percent Effect: -2.971%

compound: CN1CCCC1c1cc2cccnc2n1Cc1ccc(F)cc1.Cl (centres undefined)
Percent Effect: 7.536%

compound: O=C(O)C(F)(F)F.O=C(O)C(F)(F)F.c1ccc(O[C@H]2CO[C@@]3(CCCN(Cc4nccs4)C3)C2)nc1
Percent Effect: -9.809%

compound: Cc1nccn1C1CCCN(C(=O)c2ccc3nncn3c2)C1 (centres undefined)
Percent Effect: 2.668%

compound: CC(=O)N1CCC(C)(c2cc(C(=O)NCC3CC3)nc(C)n2)CC1
Percent Effect: -5.115%

compound: CN(C)C(=O)N1CCn2nc(CNC(=O)CCC(F)(F)F)cc2C1
Percent Effect: -7.615%

compound: [H][C@]12CC[C@]([H])(CN(C(=O)c3ccccn3)C1)N(C(=O)CCN1CCCC1)C2
Percent Effect: 13.95%

compound: CC(C)N1Cc2c(C(=O)N3CCN(C)CC3)nn(C)c2C1
Percent Effect: 19.53%

compound: [H][C@@]12CCCN1C[C@@H](CCSC)N(Cc1cnn(C=C)c1C)C2
Percent Effect: -12.2%

compound: O=C(O)C(F)(F)F.[H][C@]12CCC[C@@H](CNc3cnccn3)[C@@]1([H])CN(Cc1cccnc1)C2
Percent Effect: -4.924%

compound: Cc1nc(-c2ccccc2)nc2c1CCN(Cc1nccn1C)CC2
Percent Effect: -5.063%

compound: CCCc1nc(C(=O)N2CCCn3nc(CCC(=O)O)cc3C2)cs1
Percent Effect: 2.941%

compound: CCN1CCOCC12CCN(c1cnccn1)CC2.O=C(O)C(F)(F)F
Percent Effect: 3.152%

compound: O=c1[nH]c(CN(Cc2ccco2)C2CCCC2)nc2ccccc12
Percent Effect: -63.61%

compound: O=c1n(CC2CC2)nc(C2CCNCC2)n1Cc1ccccc1
Percent Effect: 8.71%

compound: CN(C)c1cc(C2CCCN(S(=O)(=O)c3cn[nH]c3)C2)ccn1 (centres undefined)
Percent Effect: 10.13%

compound: CC(=O)N1CCC2(CC1)CN(C(=O)c1ccc3c(c1)OCO3)C2
Percent Effect: -5.646%

compound: CN(C)CCCN1CC2(CCN(C3CCCOC3)CC2)OC1=O (centres undefined)
Percent Effect: -14.47%

compound: CCOCC1CN(C(=O)Cc2ccccn2)Cc2c1cnn2C.O=C(O)C(F)(F)F.O=C(O)C(F)(F)F (centres undefined)
Percent Effect: -5.469%

compound: CN1CCc2nc(C3CCCN(C(=O)CC(C)(C)C)C3)ncc2C1 (centres undefined)
Percent Effect: 7.364%

compound: Cc1cc2c(c(=O)n1CCC(=O)O)C=CC(C)(C)O2
Percent Effect: -5.566%

compound: c1ncn(CC2CN(CCCOc3ccc4c(c3)OCO4)CCO2)n1 (centres undefined)
Percent Effect: 17.86%

compound: CN(C)c1cccc(C2CCCN2S(=O)(=O)c2cn(C)cn2)n1 (centres undefined)
Percent Effect: 10.5%

The last 3 entries again:

compound,Percent Effect
Cc1cc2c(c(=O)n1CCC(=O)O)C=CC(C)(C)O2,-5.566%
c1ncn(CC2CN(CCCOc3ccc4c(c3)OCO4)CCO2)n1 (centres undefined),17.86%
CN(C)c1cccc(C2CCCN2S(=O)(=O)c2cn(C)cn2)n1 (centres undefined),10.5%